Data as given in PubChem BioAssay AID1259307 (Sanger Institute, 2017).

Screen: 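siRNA kinome screen seeking kinases whose loss harms SW620 cells alone or with drugs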 (primary screen)
Cells: SW620 colorectal cancer cells
Knock-down reagent: siRNA pool against human genes
Challenge: anchor drugs BYL719 at 1 µM, cetuximab at 5 µg/ml or trametinib at 10 nM, each beside a DMSO vehicle arm
Measured: 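Per-well viability versus non-targeting control pool, replicate-averaged, robust z-score from controls; synergy scores for BYL719 1 µM, cetuximab 5 µg/ml, trametinib 10 nM against DMSO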
Reading the numbers: viability robust z-score, no drug and viability vs control, no drug: higher = more viable cells; synergy score with BYL719 and synergy score with cetuximab: higher = stronger synthetic lethality with the drug
Rule for the call: 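Essential when the viability robust z-score without drug is under -3; synergy scores are ignored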
Calls: active = essential (lethal alone); inactive = no change alone
The whole screen tested 794 reagents; shown is a random part of them. 15 of them (1.9%) count as active. 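Calls reflect lethality without any drug; synergy scores did not enter the calls.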 Unmarked entries are inactive. No viability above 1 is reported: the scale is capped. Not all columns of the deposit are shown. Not stated in the record: the amount of reagent, the time to read-out.

target	viability robust z-score, no drug	viability vs control, no drug	synergy score with BYL719	synergy score with cetuximab
PAK4	0.736	1	-0.0557	0
BRSK1	0.736	1	-0.0402	0
SRGAP3	0.437	0.972	-0.0385	-0.0276
EPHB3	0.0915	0.941	-0.146	0.00988
YES1	0.307	0.96	-0.0821	-0.0396
TRPM6	0.736	1	-0.0496	0
TNK1	0.531	0.981	0.0699	0.0208

2 entries from above, arranged by “viability vs control, no drug”, descending:
target	viability robust z-score, no drug	viability vs control, no drug	synergy score with BYL719	synergy score with cetuximab
TRPM6	0.736	1	-0.0496	0
TNK1	0.531	0.981	0.0699	0.0208

The list goes on:
target	viability robust z-score, no drug	viability vs control, no drug	synergy score with BYL719	synergy score with cetuximab
PANK4	-0.687	0.869	-0.0259	-0.034
PTPRU	0.567	0.984	0.0272	0.122
GALK2	0.362	0.965	0.0494	-0.0345
TCF7L2	0.718	0.998	0.0876	0.0896
PAK5	-1.07	0.833	-0.0334	-0.0596
CDK8	0.736	1	-0.0919	0
NUP107	-6.43 (active)	0.338	-0.106	-0.0471
PKN2	0.51	0.979	0.0237	0.0635
MAP3K12	-0.248	0.909	-0.174	-0.0908
CNOT1	-3.41 (active)	0.617	-0.18	-0.214
ITK	0.736	1	-0.0404	0.0714
CDADC1	-0.0252	0.93	-0.135	-0.0702
DLG3	0.736	1	-0.0337	0.0617
